According to publication PMC4840320 (Scientific Reports, 2016):
No constants are given. Whether binding was seen depends on the method and setting. Binding seen in cells or lysates may run through a third protein. Some entries that bind do so weakly or less than the wild type. Sequences can lack the tags named with a protein.

The chains behind the UniProt entries cited, without tags or fusion partners.
UniProt Q10658: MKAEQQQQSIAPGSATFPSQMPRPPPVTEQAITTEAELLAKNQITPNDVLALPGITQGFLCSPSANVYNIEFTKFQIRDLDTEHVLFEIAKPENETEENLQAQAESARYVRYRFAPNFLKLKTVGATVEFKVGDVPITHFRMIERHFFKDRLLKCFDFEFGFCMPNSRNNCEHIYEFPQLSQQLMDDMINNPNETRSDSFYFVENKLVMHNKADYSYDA

Columns and labels:
[1] = biological target: UNC-119 with a BiFC tag (Venus fragment) in C. elegans (C. elegans) (UniProt Q10658); assay: split reporter; Venus-based BiFC in unc-119, arl-3 double mutant C. elegans (data not shown)
[2] = biological target: UNC-119 with a BiFC tag (Venus fragment) in C. elegans (C. elegans) (UniProt Q10658); assay: split reporter; Venus-based BiFC in live transgenic C. elegans (N2 background; the ARL-13 pairs also in arl-3 or unc-119 mutants); signal in the InV-like compartment of cilia

B1: ARL-3(DN) with a BiFC tag (Venus fragment) in C. elegans (protein, UniProt O45379 1-184)
chain: MGLIDVLKSFKSPSGREIRILLLGLDNAGKNTILKQLSSEDVQHVTPTKGFNVKTVAAMGDIRLNVWDIGGQRSIRPYWSNYYENIDTLIFVIDSNDKKRFDEMNIELGELLDEEKLRKVPVLIFANKQDLVTAASSEEITRKLNLDLLRDRTWHIQACSALKNEGINDGITWVASNLKPASKK
binding [1]: binds | binding [2]: binds
